The other results are listed elsewhere or left out.

Sequences of proteins named here, by UniProt entry; tags and fusion partners are left off.
UniProt Q0JBA9, entry or part of it: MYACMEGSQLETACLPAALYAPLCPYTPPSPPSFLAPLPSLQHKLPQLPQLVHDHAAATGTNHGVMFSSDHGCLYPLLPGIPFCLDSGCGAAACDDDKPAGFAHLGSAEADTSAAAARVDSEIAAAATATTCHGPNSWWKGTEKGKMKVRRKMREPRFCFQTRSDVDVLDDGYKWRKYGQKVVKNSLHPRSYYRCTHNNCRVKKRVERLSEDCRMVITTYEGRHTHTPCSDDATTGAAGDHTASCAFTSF

The assay has as its target OsWRKY34 (Oryza sativa, UniProt Q0JBA9 1-250). Briefly: protein-binding microarray (RPBM); PBS, 2% BSA, 51.3 ng/ul salmon testes DNA, 50 uM zinc acetate, 200 nM TF, 25 C, 1 h; high values mean tight binding. The settings on record: protein: recombinant; tags: N-terminal polyhistidine and DsRed monomer fusion (pET32a); label: CyDye5-dUTP incorporated in the synthesized complementary strand; 3' TTTTT single-stranded linker to array surface; dsDNA, one strand shown. In short, it runs like this:
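Ni–NTA purification followed expression in E. coli BL21-CodonPlus of transcription factors fused N-terminally to a polyhistidine tag and DsRed. At 200 nM in PBS with 2% BSA, salmon testes DNA and 50 µM zinc acetate, the protein was incubated for 1 h at 25 °C with a custom Agilent array that had been primer-extended with Cy5-dUTP and blocked with 2% BSA. After washing, the array was read on an Axon 4000B scanner. The binding signal is per-feature fluorescence intensity in arbitrary units.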
Turning to “ATCACTACGCATGTTGTCAGCTGAATGTCTTGTAGCGTGTCGGAGTCACCTAGTGCAG”, the binding signal is 9420 fluorescence intensity (a.u.).

As for “CCTGTTGGTCATCCACTAAAATGCGTTTCTTCTCGCAAAACGGAGTCACCTAGTGCAG”, the binding signal was 8310 fluorescence intensity (a.u.).

On to “ATTTGCAGGTTTAGCCACAGTACGCATGCGTTGTGTTCGTCGGAGTCACCTAGTGCAG”, for which the binding signal is 10500 fluorescence intensity (a.u.).

For “TTCCTCTCTCGCTCATTTTCGCCGCCGCCACCACCGACGACGGAGTCACCTAGTGCAG”, the binding signal was 11100 fluorescence intensity (a.u.).

On to “AGCTACCACGTCAACTGAATACCCCTGTTCCCGGACAGAACGGAGTCACCTAGTGCAG”, for which the binding signal is 9340 fluorescence intensity (a.u.).

As to “AGTTCTACATGTGCCAACCACATCCCAATACGCCGACATCCGGAGTCACCTAGTGCAG”, the binding signal is 11100 fluorescence intensity (a.u.).

As for “TCGCGTCGTCCCCAAATCCGCTACTCGCTATCCTCCTTCCCGGAGTCACCTAGTGCAG”, the binding signal is 10700 fluorescence intensity (a.u.).

As to “TGGGGTTTATGGATTTAGGGTCTCGGGCAAAGGCGACAATCGGAGTCACCTAGTGCAG”, the binding signal was 10600 fluorescence intensity (a.u.).

“TTGGATTATGGCGCCATTTGTGAATGAATTTTGGGGTTTTCGGAGTCACCTAGTGCAG”: the binding signal is 12300 fluorescence intensity (a.u.).

In the case of “TGCACGCGTCGACCCTTTCTGCTACATGCGTCGAAGCCGACGGAGTCACCTAGTGCAG”, the binding signal is 8520 fluorescence intensity (a.u.).

On to “GTACGCACATTGTCGTCGGTACCAGCTGCAGCTAGCCCAACGGAGTCACCTAGTGCAG”, for which the binding signal is 8530 fluorescence intensity (a.u.).

For the sequence “TTCTTCTTCACGTACTACGCCTGTGCCCCTCGTCACACCTCGGAGTCACCTAGTGCAG”, the binding signal is 8460 fluorescence intensity (a.u.).

Regarding “AGTTAAGGGACCCTGCATATCTGGTTTTGTGTTTCGAGAACGGAGTCACCTAGTGCAG”, the binding signal is 8150 fluorescence intensity (a.u.).

As for “ACACTTGCATATTTACCTTCAAACCTTTTTTTTTCTCTTCCGGAGTCACCTAGTGCAG”, the binding signal was 8180 fluorescence intensity (a.u.).

Take “CTATGTAGCGTGAGATCCTCTGCCGTCGACGCCATCTTCTCGGAGTCACCTAGTGCAG”: the binding signal is 8980 fluorescence intensity (a.u.).

Take “AGTGCCAGCTATATTATCACCTACTACTGCCACCTTTATACGGAGTCACCTAGTGCAG”: the binding signal is 8570 fluorescence intensity (a.u.).

In the case of “TCCCATCACACACACCACCGCTCCGCTCCATGTCGCACCACGGAGTCACCTAGTGCAG”, the binding signal was 8350 fluorescence intensity (a.u.).

As to “TAGACTTTTGATTTCCTTTTGTTTCCATTAGTTGGCCAATCGGAGTCACCTAGTGCAG”, the binding signal was 10400 fluorescence intensity (a.u.).

As for “TAAAAAAAAAGTTTTATTCTCGGGTTCGTTGGGTTTTATCCGGAGTCACCTAGTGCAG”, the binding signal is 9030 fluorescence intensity (a.u.).

On to “GGATGGGGTGTCTTTTGGTCCAAATTGGAGCTACCGGAACCGGAGTCACCTAGTGCAG”, for which the binding signal is 10400 fluorescence intensity (a.u.).

For “CGGGGAAGGAGAGGGGCGTTAGGGAGGAGGGGCGCACAGACGGAGTCACCTAGTGCAG”, the binding signal was 16800 fluorescence intensity (a.u.).

Turning to “GTTCGATGCATCTCGCCACCATGACGTGTACCGCGAAAGACGGAGTCACCTAGTGCAG”, the binding signal is 8460 fluorescence intensity (a.u.).

For the sequence “CGCGGTCGACCCACCGTCTGCCACGTCAGCTTGCTGCCCACGGAGTCACCTAGTGCAG”, the binding signal is 9510 fluorescence intensity (a.u.).

Take “GCTCTTTTTTTGTTACAACTTCGTCACCGTGTTATCTATACGGAGTCACCTAGTGCAG”: the binding signal is 9290 fluorescence intensity (a.u.).

“TTTCTCTTTAACTTATCCTCTCCAGTAAACCTCTCATACTCGGAGTCACCTAGTGCAG”: the binding signal was 8360 fluorescence intensity (a.u.).

As to “GTTACATTCTTGTTCAGTCCTCACTACTCATCCCTACAATCGGAGTCACCTAGTGCAG”, the binding signal was 11500 fluorescence intensity (a.u.).

For the sequence “TTTTGAAGGGGCTGTGGTGATTTGAGACCTAGATGACACACGGAGTCACCTAGTGCAG”, the binding signal was 8050 fluorescence intensity (a.u.).

Take “ATTATGGTTTAGGGTTAGGGATATGAATTACACTAGTTAACGGAGTCACCTAGTGCAG”: the binding signal is 9280 fluorescence intensity (a.u.).

As to “CTCTCTGCCGCAATCACCGCGCCTCCTCCGCATTCGCGCGCGGAGTCACCTAGTGCAG”, the binding signal was 11000 fluorescence intensity (a.u.).

Turning to “TCCTCTGCCTCCATGGCCACTCCATCCCTGTCCTCCATCCCGGAGTCACCTAGTGCAG”, the binding signal is 8300 fluorescence intensity (a.u.).

Consider “TATTTGTGTCTATGAAATGTGGGTTCAGTGTTATTATAGACGGAGTCACCTAGTGCAG”, for which the binding signal was 8990 fluorescence intensity (a.u.).

Turning to “TGTGTGAGATTTTTGCATGTTTTTGTTGTGTTTGTTCATACGGAGTCACCTAGTGCAG”, the binding signal was 8580 fluorescence intensity (a.u.).

“TCTGGACTGAACCTTTTGCCCATTGGTCATGCAATGTTGCCGGAGTCACCTAGTGCAG”: the binding signal is 8960 fluorescence intensity (a.u.).

Take “CAACCGAAATGACAGAGGATTGACTACACGCCTATACTATCGGAGTCACCTAGTGCAG”: the binding signal is 8800 fluorescence intensity (a.u.).

In the case of “CTTGAATTTTGCGGTGACATACTAATGCAGGACTAAAATCCGGAGTCACCTAGTGCAG”, the binding signal was 8220 fluorescence intensity (a.u.).

As for “GATTCGGTCTGTTTTGGCCTTCTTGACAATATTAGCATGTCGGAGTCACCTAGTGCAG”, the binding signal was 9390 fluorescence intensity (a.u.).

With “GTAGATCTTTTTTTTTCACTAACCGACACCAGGTATATCACGGAGTCACCTAGTGCAG”, the binding signal was 9710 fluorescence intensity (a.u.).

“ATCCTCATGCATGTGCATGTATTACCTACTCATTCCCACCCGGAGTCACCTAGTGCAG”: the binding signal was 8020 fluorescence intensity (a.u.).

As for “TCAGATCTATTCAATCAGATGATGTTCTTGCCTGATATTCCGGAGTCACCTAGTGCAG”, the binding signal is 8620 ± 442 fluorescence intensity (a.u.).

Consider “TTGTTCCATCACTTCCATACTTCGTGCTGGTTGTAAGATTCGGAGTCACCTAGTGCAG”, for which the binding signal is 8660 fluorescence intensity (a.u.).

Regarding “ACCAACTTAGGCCATATGAATACACCACACGAGTATACGACGGAGTCACCTAGTGCAG”, the binding signal is 11000 fluorescence intensity (a.u.).

With “CCCACCCTGACGCTCTGTCTTCTCGCACTCGCGGCGCCGTCGGAGTCACCTAGTGCAG”, the binding signal is 9380 fluorescence intensity (a.u.).

For “CAAGGACAAGGTGACTATGCTTGCACGACTTTCCATGCCACGGAGTCACCTAGTGCAG”, the binding signal is 8060 fluorescence intensity (a.u.).

On to “ATATATATATATATATATATATGGAATACATCATATCCAACGGAGTCACCTAGTGCAG”, for which the binding signal was 13600 fluorescence intensity (a.u.).

On to “AAGAGATTATCACTGTTGTTTTTTTCGTTTTCTTGCTTGCCGGAGTCACCTAGTGCAG”, for which the binding signal is 9190 fluorescence intensity (a.u.).

Consider “CCATGGAATTTCAATTGCGTTTGACCATATATTTTATTATCGGAGTCACCTAGTGCAG”, for which the binding signal is 9230 fluorescence intensity (a.u.).

In the case of “TAATGGCTCACCTCGTTTTGCGTATCTTCCCAGTCTTCTCCGGAGTCACCTAGTGCAG”, the binding signal is 11600 fluorescence intensity (a.u.).

On to “GCGATCCCACCGATTCTTGCACACACACTAGCTACTTCTACGGAGTCACCTAGTGCAG”, for which the binding signal was 9900 fluorescence intensity (a.u.).

Take “TGTGGTGTGCTTGAGGTGCTTTTGAGTTTTAAATAGATTACGGAGTCACCTAGTGCAG”: the binding signal was 8520 fluorescence intensity (a.u.).

For “CAAAACCCAACTGGCCAATCCGCGTGTTGATTACATTTCCCGGAGTCACCTAGTGCAG”, the binding signal was 8180 fluorescence intensity (a.u.).

For “CACCTTTCAATTTTTTTCTTCATAATATTTTCCTCCTATCCGGAGTCACCTAGTGCAG”, the binding signal was 9490 fluorescence intensity (a.u.).

For the sequence “TTTTCGTCTATTTTATTACTGTTGCTTGCCTACAATTCTCCGGAGTCACCTAGTGCAG”, the binding signal is 13500 fluorescence intensity (a.u.).

In the case of “TCCTCTCCTTTCCATTTTTTCCCCATCGCGCCCTACTTAACGGAGTCACCTAGTGCAG”, the binding signal was 11800 fluorescence intensity (a.u.).

“AAAGTTGGGCTTCTTCGGTTCTTCCCATATATGACAGATACGGAGTCACCTAGTGCAG”: the binding signal is 8220 fluorescence intensity (a.u.).

The record behind these values is article PMC7819943, “Rice protein-binding microarrays: a tool to detect cis-acting elements near promoter regions in rice”.
